Among the data in article PMC10528150 are binding values, retold here.

Sequences of proteins named here, by UniProt entry; tags and fusion partners are left off. A change or cut given only in a name is not applied to a line headed by its entry. A line that says so, or that is headed by a name, gives the form on record, which may keep a tag or linker.
cytochrome c with substitutions K8E/K27E/E62K/E69K/K72E/K86E/K87E/E90K (P00004, form named): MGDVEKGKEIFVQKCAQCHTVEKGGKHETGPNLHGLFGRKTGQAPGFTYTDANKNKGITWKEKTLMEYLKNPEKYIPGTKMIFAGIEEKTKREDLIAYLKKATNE

This assay addresses cytochrome c with substitutions K8E/K27E/E62K/E69K/K72E/K86E/K87E/E90K (horse) (UniProt P00004). As to the kind of experiment: dynamic light scattering; Zetasizer Nano ZS, He-Ne laser 633 nm; basic medium (50 mM Hepes/Tris pH 7.6, 0.1 mM EDTA, 50 mM KCl); CytC 50 μM; monomer to dimer by particle size (3 nm against 6 nm); both purified.

These are yes or no findings as the source states them, for the method shown.

“cytochrome c with substitutions K8E/K27E/E62K/E69K/K72E/K86E/K87E/E90K (from UniProt P00004 1-105)”: the binding entry was “no binding (tested: 50 μM)”.
